From publication PMC4464616, “SIRT6 protein deacetylase interacts with MYH DNA glycosylase, APE1 endonuclease, and Rad9–Rad1–Hus1 checkpoint clamp” (BMC Molecular Biology, 2015) come the findings set out here.

By UniProt entry, the sequences of proteins in these tests, tags left out.
UniProt Q8N6T7: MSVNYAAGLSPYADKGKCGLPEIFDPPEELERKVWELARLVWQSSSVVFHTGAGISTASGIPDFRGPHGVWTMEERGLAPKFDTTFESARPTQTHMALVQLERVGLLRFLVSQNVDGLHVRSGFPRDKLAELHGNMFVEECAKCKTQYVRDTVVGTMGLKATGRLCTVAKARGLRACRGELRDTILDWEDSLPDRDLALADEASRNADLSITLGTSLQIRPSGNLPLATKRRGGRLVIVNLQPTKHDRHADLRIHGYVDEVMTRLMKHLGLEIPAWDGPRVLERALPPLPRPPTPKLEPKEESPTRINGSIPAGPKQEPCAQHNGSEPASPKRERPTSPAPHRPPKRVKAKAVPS
UniProt P27695: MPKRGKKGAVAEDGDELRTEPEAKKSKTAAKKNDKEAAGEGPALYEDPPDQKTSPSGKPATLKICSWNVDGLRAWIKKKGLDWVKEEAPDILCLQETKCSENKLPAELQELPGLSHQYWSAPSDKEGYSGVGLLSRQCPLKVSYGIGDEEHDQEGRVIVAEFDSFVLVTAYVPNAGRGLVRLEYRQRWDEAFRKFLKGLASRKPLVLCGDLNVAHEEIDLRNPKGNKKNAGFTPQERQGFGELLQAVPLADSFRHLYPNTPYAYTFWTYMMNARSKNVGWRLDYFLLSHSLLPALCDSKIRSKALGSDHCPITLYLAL

For assay [1], the target named is human SIRT6 (hSIRT6), endogenous (human (endogenous in HeLa)) (UniProt Q8N6T7). Kind of assay: co-IP; immunoprecipitation from HeLa cell extracts with hMYH, hAPE1 or hSIRT6 antibody, Western blot; IgG as control; extracts of untreated cells or of cells treated with 0.15 mM H2O2 for 1 h and recovered for 6 h. A general note: In western blotting, separated proteins are transferred to a membrane and probed.

In assay [2] the target is human AP endonuclease 1 (hAPE1), endogenous (human (endogenous in HeLa)) (UniProt P27695). Described as above.
Assay [3] deals with T1, human MutY homolog (hMYH), endogenous (human (endogenous in HeLa)) (UniProt Q9UIF7).
T1 sequence: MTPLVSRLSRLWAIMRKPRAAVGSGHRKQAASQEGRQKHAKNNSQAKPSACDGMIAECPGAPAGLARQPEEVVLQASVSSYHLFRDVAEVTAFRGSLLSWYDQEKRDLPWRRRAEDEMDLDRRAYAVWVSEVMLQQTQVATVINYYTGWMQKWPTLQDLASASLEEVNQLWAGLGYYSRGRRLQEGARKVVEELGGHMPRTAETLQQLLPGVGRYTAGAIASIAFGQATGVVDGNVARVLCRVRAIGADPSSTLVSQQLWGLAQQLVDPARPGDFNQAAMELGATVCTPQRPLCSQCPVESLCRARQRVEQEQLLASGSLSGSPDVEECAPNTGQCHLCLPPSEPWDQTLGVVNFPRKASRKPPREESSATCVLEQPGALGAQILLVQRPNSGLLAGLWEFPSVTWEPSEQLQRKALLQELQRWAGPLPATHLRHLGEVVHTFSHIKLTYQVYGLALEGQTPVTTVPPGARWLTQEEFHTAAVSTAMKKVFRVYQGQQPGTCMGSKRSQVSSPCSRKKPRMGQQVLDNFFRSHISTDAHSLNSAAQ
Described as above.

A further assay deals with T2, GST-hMYH(1-350) Q324H (human, UniProt Q9UIF7-3 1-350, Q324H).
T2 construct: human MutY homolog (MYH, MUTYH), residues 1-350 with Q324H, a variant found in MAP patients; also called hMYH^Q324H; Q338H according to the new nomenclature; source: purified, immobilised on beads
T2 sequence (looked up): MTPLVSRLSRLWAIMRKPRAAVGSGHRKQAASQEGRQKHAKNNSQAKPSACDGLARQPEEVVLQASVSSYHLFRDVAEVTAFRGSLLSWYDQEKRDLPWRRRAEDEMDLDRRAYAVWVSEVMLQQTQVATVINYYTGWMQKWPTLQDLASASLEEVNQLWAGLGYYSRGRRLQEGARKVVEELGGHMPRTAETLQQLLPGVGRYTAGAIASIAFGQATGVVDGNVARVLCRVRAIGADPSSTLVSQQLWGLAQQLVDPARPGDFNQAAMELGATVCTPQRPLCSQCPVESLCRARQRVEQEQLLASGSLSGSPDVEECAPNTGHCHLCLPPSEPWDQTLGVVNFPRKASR
Nature of the assay: pull-down; GST fusion protein immobilised on beads; 50 ug/ml ethidium bromide added for 30 min before the partner; bound protein detected by Western blot (FLAG, hAPE1 or His antibody); in some panels a further purified partner (hAPE1, mSirt6, hHus1) was added; both purified.

These are yes or no findings as the source states them, for the method shown. For part of these data: In cells and extracts the contact can be indirect. Some entries that bind do so weakly or less than the wild type. For part of these data: Tags and fused reporters may be left off the sequences shown.

As for “human AP endonuclease 1 (hAPE1), endogenous (from UniProt P27695 1-318)”, the binding entry in assay [1] is recorded as “binds”.

As to “human SIRT6 (hSIRT6), endogenous (from UniProt Q8N6T7 1-355)”, the binding result in assay [2] and in assay [3] was “binds” each time.

B1: human MutY homolog (hMYH), endogenous (protein, UniProt Q9UIF7 1-546)
chain: MTPLVSRLSRLWAIMRKPRAAVGSGHRKQAASQEGRQKHAKNNSQAKPSACDGMIAECPGAPAGLARQPEEVVLQASVSSYHLFRDVAEVTAFRGSLLSWYDQEKRDLPWRRRAEDEMDLDRRAYAVWVSEVMLQQTQVATVINYYTGWMQKWPTLQDLASASLEEVNQLWAGLGYYSRGRRLQEGARKVVEELGGHMPRTAETLQQLLPGVGRYTAGAIASIAFGQATGVVDGNVARVLCRVRAIGADPSSTLVSQQLWGLAQQLVDPARPGDFNQAAMELGATVCTPQRPLCSQCPVESLCRARQRVEQEQLLASGSLSGSPDVEECAPNTGQCHLCLPPSEPWDQTLGVVNFPRKASRKPPREESSATCVLEQPGALGAQILLVQRPNSGLLAGLWEFPSVTWEPSEQLQRKALLQELQRWAGPLPATHLRHLGEVVHTFSHIKLTYQVYGLALEGQTPVTTVPPGARWLTQEEFHTAAVSTAMKKVFRVYQGQQPGTCMGSKRSQVSSPCSRKKPRMGQQVLDNFFRSHISTDAHSLNSAAQ
Turning to B1, the binding result in assay [1] is recorded as “binds”.

B2: His-tagged human Hus1 (hHus1) (natural protein, UniProt O60921 1-280, looked up)
chain: MKFRAKIVDGACLNHFTRISNMIAKLAKTCTLRISPDKLNFILCDKLANGGVSMWCELEQENFFNEFQMEGVSAENNEIYLELTSENLSRALKTAQNARALKIKLTNKHFPCLTVSVELLSMSSSSRIVTHDIPIKVIPRKLWKDLQEPVVPDPDVSIYLPVLKTMKSVVEKMKNISNHLVIEANLDGELNLKIETELVCVTTHFKDLGNPPLASESTHEDRNVEHMAEVHIDIRKLLQFLAGQQVNPTKALCNIVNNKMVHFDLLHEDVSLQYFIPALS
notes: human Hus1, subunit of the Rad9-Rad1-Hus1 checkpoint clamp; pET21a usually adds a C-terminal His6 (surmise); source: E. coli BL21-Star with pET21a-hHus1, purified
For the molecule B2, in the assay with GST-hMYH(1-350) Q324H, the binding entry is reported as “no binding”.

B3: human Rad9 (hRad9), endogenous (protein, UniProt Q99638 1-391)
chain: MKCLVTGGNVKVLGKAVHSLSRIGDELYLEPLEDGLSLRTVNSSRSAYACFLFAPLFFQQYQAATPGQDLLRCKILMKSFLSVFRSLAMLEKTVEKCCISLNGRSSRLVVQLHCKFGVRKTHNLSFQDCESLQAVFDPASCPHMLRAPARVLGEAVLPFSPALAEVTLGIGRGRRVILRSYHEEEADSTAKAMVTEMCLGEEDFQQLQAQEGVAITFCLKEFRGLLSFAESANLNLSIHFDAPGRPAIFTIKDSLLDGHFVLATLSDTDSHSQDLGSPERHQPVPQLQAHSTPHPDDFANDDIDSYMIAMETTIGNEGSRVLPSISLSPGPQPPKSPGPHSEEEDEAEPSTVPGTPPPKKFRSLFFGSILAPVRSPQGPSPVLAEDSEGEG
As for B3, in assay [1], the binding result is reported as “binds”.
